Binding data for two substances are collected here from paper PMC10667520.

Amino acid sequences for entries named in this document (tags omitted). A change or cut given only in a name is not applied to a line headed by its entry.
UniProt P46531: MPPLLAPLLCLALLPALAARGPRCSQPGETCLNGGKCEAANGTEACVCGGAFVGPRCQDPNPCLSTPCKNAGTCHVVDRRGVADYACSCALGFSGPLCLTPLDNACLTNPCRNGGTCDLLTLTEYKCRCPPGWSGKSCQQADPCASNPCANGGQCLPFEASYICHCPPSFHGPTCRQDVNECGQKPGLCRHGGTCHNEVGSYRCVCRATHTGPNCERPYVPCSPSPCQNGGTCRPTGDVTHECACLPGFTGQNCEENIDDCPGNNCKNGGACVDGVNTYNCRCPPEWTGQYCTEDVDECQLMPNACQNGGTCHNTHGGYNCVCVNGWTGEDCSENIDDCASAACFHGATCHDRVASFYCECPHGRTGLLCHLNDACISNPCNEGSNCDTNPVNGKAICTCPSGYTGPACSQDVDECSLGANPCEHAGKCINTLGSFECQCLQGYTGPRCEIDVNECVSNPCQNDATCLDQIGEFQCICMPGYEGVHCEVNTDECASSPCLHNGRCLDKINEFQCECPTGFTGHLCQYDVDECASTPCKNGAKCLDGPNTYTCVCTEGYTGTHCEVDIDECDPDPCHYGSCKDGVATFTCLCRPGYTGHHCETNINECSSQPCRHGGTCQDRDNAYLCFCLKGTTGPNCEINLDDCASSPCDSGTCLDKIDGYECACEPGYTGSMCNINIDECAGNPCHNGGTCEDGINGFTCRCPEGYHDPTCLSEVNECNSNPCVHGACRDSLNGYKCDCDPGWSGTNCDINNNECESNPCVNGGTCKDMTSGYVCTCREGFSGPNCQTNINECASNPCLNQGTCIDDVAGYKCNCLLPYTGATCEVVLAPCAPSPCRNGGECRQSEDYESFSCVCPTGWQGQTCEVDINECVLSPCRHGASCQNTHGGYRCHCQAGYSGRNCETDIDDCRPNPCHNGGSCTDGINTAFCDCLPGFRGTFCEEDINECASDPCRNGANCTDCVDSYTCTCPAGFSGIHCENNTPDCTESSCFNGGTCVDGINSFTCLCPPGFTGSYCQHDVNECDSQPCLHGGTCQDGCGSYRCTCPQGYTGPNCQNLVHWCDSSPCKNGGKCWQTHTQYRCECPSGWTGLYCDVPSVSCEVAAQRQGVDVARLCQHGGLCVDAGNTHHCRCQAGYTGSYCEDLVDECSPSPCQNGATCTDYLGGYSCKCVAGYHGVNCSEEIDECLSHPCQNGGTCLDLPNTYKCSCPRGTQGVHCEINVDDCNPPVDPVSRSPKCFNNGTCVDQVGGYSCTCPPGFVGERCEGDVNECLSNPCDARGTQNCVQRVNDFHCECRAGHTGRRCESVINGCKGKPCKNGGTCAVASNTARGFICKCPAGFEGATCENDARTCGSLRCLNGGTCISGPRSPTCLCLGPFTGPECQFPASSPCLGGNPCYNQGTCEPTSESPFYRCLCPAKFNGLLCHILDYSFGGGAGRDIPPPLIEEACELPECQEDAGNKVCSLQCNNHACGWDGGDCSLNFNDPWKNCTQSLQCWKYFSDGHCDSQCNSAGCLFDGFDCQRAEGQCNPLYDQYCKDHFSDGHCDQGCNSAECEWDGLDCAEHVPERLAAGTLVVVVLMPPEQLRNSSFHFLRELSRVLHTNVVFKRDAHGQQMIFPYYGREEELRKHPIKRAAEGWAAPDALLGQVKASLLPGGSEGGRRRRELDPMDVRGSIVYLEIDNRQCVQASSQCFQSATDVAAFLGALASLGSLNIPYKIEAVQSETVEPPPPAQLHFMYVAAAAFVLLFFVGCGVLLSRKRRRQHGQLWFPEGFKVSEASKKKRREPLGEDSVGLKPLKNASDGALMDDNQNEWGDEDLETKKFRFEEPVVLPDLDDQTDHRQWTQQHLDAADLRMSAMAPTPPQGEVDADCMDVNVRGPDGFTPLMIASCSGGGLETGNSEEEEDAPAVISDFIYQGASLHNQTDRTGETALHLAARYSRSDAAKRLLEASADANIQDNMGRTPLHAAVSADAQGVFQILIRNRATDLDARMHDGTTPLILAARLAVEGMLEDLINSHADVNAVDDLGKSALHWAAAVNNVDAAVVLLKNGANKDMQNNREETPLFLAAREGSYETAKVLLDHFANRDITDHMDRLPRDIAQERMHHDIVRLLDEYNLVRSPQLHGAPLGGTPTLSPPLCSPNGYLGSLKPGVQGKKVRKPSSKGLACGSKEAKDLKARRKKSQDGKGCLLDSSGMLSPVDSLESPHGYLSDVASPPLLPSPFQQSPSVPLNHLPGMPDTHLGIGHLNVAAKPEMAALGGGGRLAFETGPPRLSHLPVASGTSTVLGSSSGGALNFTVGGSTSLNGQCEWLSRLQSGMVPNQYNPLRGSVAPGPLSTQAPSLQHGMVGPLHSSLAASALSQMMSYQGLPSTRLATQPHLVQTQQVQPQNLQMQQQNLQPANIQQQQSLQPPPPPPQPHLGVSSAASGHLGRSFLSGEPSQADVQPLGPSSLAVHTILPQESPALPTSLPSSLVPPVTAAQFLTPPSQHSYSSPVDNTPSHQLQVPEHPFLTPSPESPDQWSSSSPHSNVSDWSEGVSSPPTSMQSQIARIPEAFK

These are yes or no findings as the source states them, for the method shown. In cells and extracts the contact can be indirect. Some results given as binding are weak or reduced against the parent protein; the word gives no strength. Sequences can lack the tags named with a protein.

Test [1] deals with T1, SLC35D3 (solute carrier family 35, member D3), His-tagged (UniProt Q5M8T2).
T1 sequence: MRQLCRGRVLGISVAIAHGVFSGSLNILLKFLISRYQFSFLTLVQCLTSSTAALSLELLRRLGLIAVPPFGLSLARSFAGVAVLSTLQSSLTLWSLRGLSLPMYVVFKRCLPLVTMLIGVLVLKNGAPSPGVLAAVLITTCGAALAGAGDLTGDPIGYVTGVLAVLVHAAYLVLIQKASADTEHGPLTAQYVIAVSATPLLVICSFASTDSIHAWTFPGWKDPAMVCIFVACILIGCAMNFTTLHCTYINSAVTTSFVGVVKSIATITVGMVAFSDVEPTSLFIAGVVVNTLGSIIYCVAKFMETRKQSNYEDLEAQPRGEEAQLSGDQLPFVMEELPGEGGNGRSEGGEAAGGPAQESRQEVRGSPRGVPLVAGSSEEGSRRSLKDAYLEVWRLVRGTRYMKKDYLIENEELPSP
Nature of the test: co-IP; HEK293T cells 48 h after transfection, lysed in IP lysis buffer; lysates incubated with antibodies at 4 °C overnight, protein A/G beads 1 h at room temperature; immunoblot.

For another test, the target named is T2, GST-SLC35D3 (UniProt Q5M8T2).
T2 sequence: T1 sequence
Description: pull-down; purified GST-SLC35D3 (bait) immobilised on glutathione affinity resin, incubated with Myc-ECD protein lysate at 4 °C for at least 1 h; western blot; only the target purified. On the technique in general: Immunoblotting shows a protein as a band on a membrane.

Turning to “NOTCH1 (from UniProt P46531 19-2555) (receptor)”, in test [1], the binding entry is recorded as “binds”.

As for “myc-tagged NOTCH1 extracellular domain (ECD) (from UniProt P46531 19-1735) (domain or fragment)”, the binding result (in test [1]; in the test with GST-SLC35D3) was “binds” throughout.
